Here are results for one substance from patent US11541028B2 (Mederis Diabetes LLC, priority 2018, dated 2023).

A short description of the data set: general procedure: Fmoc solid-phase peptide synthesis; Fmoc-Thr(tBu)-HMPA resin; HBTU:DIEA (1:2); DIC/HOBt for side-chain acylation and lactam. Particulars: whole synthesis, analytical HPLC / mass spectrometry, scale of the general procedure 2 mmole.

For the substance “Boc-His(Trt)-Aib-Gln(Trt)-Gly-Thr(tBu)-Phe-Thr(tBu)-Ser(tBu)-Asp(OtBu)-Tyr(tBu)-Ser(tBu)-Lys(Boc)-Tyr(tBu)-Leu-Asp(OtBu)-Glu(O-Allyl)-Gln(Trt)-Ala-Ala-Lys(Alloc)-Glu(O-tBu)-Phe-Ile-Lys(Dde)-Trp(Boc)-Leu-Leu- Gln(Trt)-Thr(tBu)-HMPA”, the “final HPLC purity” value worked out at 98.7%.
